Assay results published in paper PMC2910502.
These are yes or no findings as the source states them, for the method shown. Binding seen in cells or lysates may run through a third protein. Some entries that bind do so weakly or less than the wild type.

Chains of the proteins cited; added tags and fusions are not shown.
UniProt Q9R1E0: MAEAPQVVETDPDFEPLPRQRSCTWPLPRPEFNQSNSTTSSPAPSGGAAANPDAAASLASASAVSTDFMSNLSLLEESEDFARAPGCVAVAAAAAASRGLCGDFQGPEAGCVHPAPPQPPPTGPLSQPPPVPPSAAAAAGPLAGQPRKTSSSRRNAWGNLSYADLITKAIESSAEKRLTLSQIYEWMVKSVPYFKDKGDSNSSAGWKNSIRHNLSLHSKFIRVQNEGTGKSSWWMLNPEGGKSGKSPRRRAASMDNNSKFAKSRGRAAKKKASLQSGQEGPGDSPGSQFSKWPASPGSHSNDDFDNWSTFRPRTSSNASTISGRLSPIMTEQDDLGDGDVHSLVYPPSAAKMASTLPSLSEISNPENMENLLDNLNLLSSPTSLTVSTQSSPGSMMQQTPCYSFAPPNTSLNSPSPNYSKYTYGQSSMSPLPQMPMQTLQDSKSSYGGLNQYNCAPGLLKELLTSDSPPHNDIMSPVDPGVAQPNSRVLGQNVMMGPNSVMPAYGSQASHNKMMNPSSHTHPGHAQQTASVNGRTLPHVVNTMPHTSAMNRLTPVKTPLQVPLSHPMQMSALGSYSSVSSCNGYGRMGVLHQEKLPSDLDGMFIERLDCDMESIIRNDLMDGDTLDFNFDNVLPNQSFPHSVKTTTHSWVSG

Assays:
[1] = target: T1, SirT1 (mouse (endogenous in MEFs)) (UniProt Q923E4); assay: co-IP; KRIT1-/- MEFs grown to confluence; lysates (~2 mg protein) incubated overnight at 4°C with a SirT1-specific mAb and protein A/G-Sepharose; beads washed 4 times with lysis buffer; Western blot of the immunocomplexes
T1 sequence: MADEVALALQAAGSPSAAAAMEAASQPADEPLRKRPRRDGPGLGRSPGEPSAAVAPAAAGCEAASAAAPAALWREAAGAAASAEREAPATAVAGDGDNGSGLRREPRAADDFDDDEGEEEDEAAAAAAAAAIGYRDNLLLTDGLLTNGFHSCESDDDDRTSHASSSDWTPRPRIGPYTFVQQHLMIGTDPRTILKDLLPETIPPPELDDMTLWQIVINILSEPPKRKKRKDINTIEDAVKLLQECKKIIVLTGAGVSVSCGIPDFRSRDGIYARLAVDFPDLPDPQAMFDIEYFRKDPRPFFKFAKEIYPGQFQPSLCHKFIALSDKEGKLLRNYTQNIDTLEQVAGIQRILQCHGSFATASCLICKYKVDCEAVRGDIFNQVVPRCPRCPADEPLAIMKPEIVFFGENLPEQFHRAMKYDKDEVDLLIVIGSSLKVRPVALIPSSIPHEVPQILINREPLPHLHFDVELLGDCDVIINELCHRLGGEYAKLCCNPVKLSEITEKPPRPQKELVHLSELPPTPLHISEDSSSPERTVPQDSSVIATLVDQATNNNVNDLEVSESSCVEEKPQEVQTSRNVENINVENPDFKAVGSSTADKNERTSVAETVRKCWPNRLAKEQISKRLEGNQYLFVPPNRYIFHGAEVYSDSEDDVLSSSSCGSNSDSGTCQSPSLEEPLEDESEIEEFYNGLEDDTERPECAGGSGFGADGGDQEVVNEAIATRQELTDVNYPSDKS

[2] = target: T1, SirT1 (mouse (endogenous in MEFs)); assay: co-IP; Lv-KRIT1 (K9/6) MEFs grown to confluence; lysates (~2 mg protein) incubated overnight at 4°C with a SirT1-specific mAb and protein A/G-Sepharose; beads washed 4 times with lysis buffer; Western blot of the immunocomplexes

Substance	binding [1]	binding [2]
FoxO1 (from UniProt Q9R1E0 1-652)	no binding (condition: in KRIT1-/- MEFs)	binds
KRIT1A (from UniProt Q6S5J6-1 1-736)	–	no binding
